The target in this experiment is T1, CD20 on the CD20+ human Daudi Burkitt lymphoma cell line (human) (UniProt P11836).
T1 sequence (looked up): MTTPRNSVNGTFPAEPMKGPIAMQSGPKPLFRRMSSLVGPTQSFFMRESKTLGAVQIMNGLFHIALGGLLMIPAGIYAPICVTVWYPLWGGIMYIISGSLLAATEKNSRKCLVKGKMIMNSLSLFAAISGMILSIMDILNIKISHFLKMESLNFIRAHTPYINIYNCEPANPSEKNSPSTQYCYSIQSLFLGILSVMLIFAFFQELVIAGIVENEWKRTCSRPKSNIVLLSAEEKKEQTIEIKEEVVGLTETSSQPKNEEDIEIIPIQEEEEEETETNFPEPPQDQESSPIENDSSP
The experiment can be described thus: FACS binding assay on CD20+ Daudi cells, serial dilutions of antibody.

These are yes or no findings as the source states them, for the method shown. Some results given as binding are weak or reduced against the parent protein; the word gives no strength.

B1: epitope modified anti-CD20 antibody derived from Leu 16 (antibody, V domains shown)
VH: EVQLQQSGAEVVKPGASVKMSCKASGYTFTSYNMHWVKQTPGQGLEWIGAIYPGNGDTSYNQKFKGRVTLTADKSSSTAYMQLSSLRSEDSAVYYCARSNYYGSSYWFFDVWGAGTTVTVSS
VL: DIVLTQSPATLSASPGEKVTMTCRASSSVNYMAWYQQKPGSSPKPWIYATSNLASGVPARFSGSGSGTSYSLTISRVEAEDAATYYCQQWSFNPPTFGGGTKLEIK
For the molecule B1, the binding entry is given as “binds”.

(Values after patent WO2008044032A2 (dated 2008).)
